Source: PubChem BioAssay AID1508597 (Cure First, 2020)
Shown is an unselected part of the about 2,100 reagents, under one of the conditions tested. 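Calls flag viability under 80% in either arm, not effects specific to rucaparib; the reference for percent is not stated.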 Entries without a mark were called inactive. Some reagents were tested in more than one well and are listed for each. The record does not give: the 100% reference.

Aim: 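Knock-downs altering ovarian cancer cell survival with or without PARP inhibitor rucaparib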 (primary screen)
System: human ovarian carcinoma lines grown from tumours: OCI-P5x (papillary serous) and OCI-C5x (clear cell)
Reagents: siRNA pool against human genes, 1.25 pmol siRNA per well
Timing: 72 h or 96 h, depending on the cell culture
Treatment: rucaparib 20 µM (about IC30) or vehicle, present until read-out
Rucaparib or vehicle: Rucaparib
Cell line: OCI-P5x (serous)
Measured: 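Luminescent ATP-based viability assay read 72 or 96 h after transfection, depending on culture, given as normalised percent viability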
Direction: viability, normalised: higher = more viable cells remaining
Rule for the call: 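a well counts as a hit if its normalised viability is under 80 percent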
Calls: active = viability under 80%; inactive = viability 80% or more

gene,technical replicate,"viability, normalised (%)"
RASGRF1 (GeneID 5923),1,44.5 (active)
RASGRF1 (GeneID 5923),2,52.9 (active)
RASGRF1 (GeneID 5923),3,71.5 (active)
DDX11 (GeneID 1663),1,52.1 (active)
DDX11 (GeneID 1663),2,46.1 (active)
DDX11 (GeneID 1663),3,29.5 (active)
KDM5C (GeneID 8242),1,37.1 (active)
KDM5C (GeneID 8242),2,36.8 (active)
KDM5C (GeneID 8242),3,44.9 (active)
CBX8 (GeneID 57332),1,69.5 (active)
CBX8 (GeneID 57332),2,64.3 (active)
CBX8 (GeneID 57332),3,66.4 (active)
ERBB2 (GeneID 2064),1,93.5
ERBB2 (GeneID 2064),2,85
ERBB2 (GeneID 2064),3,91.3
NABP2 (GeneID 79035),1,44.9 (active)
NABP2 (GeneID 79035),2,47.7 (active)
NABP2 (GeneID 79035),3,14.4 (active)
DDX60 (GeneID 55601),1,77.9 (active)
DDX60 (GeneID 55601),2,80.9
DDX60 (GeneID 55601),3,68.2 (active)
PRKCB (GeneID 5579),1,31.7 (active)
PRKCB (GeneID 5579),1,95.6
PRKCB (GeneID 5579),2,85.2
PRKCB (GeneID 5579),2,38 (active)
PRKCB (GeneID 5579),3,71.5 (active)
PRKCB (GeneID 5579),3,39.4 (active)
TTBK1 (GeneID 84630),1,75.8 (active)
TTBK1 (GeneID 84630),2,77 (active)
TTBK1 (GeneID 84630),3,66.3 (active)
CDK8 (GeneID 1024),1,105
CDK8 (GeneID 1024),2,92.9
CDK8 (GeneID 1024),3,103
RCOR1 (GeneID 23186),1,28.8 (active)
RCOR1 (GeneID 23186),2,31 (active)
RCOR1 (GeneID 23186),3,40.8 (active)
CSNK1G1 (GeneID 53944),1,54.9 (active)
CSNK1G1 (GeneID 53944),2,50.2 (active)
CSNK1G1 (GeneID 53944),3,56.3 (active)
TYMS (GeneID 7298),1,111
TYMS (GeneID 7298),2,98
TYMS (GeneID 7298),3,116
SMYD5 (GeneID 10322),1,61.8 (active)
SMYD5 (GeneID 10322),2,64.3 (active)
SMYD5 (GeneID 10322),3,71.6 (active)
GRK6 (GeneID 2870),1,109
GRK6 (GeneID 2870),2,112
GRK6 (GeneID 2870),3,98.8
PKD2L1 (GeneID 9033),1,65.3 (active)
PKD2L1 (GeneID 9033),2,60.9 (active)
PKD2L1 (GeneID 9033),3,48.1 (active)
BRD7 (GeneID 29117),1,71.2 (active)
BRD7 (GeneID 29117),2,83.2
BRD7 (GeneID 29117),3,81.5
MED21 (GeneID 9412),1,74.8 (active)
MED21 (GeneID 9412),2,64.6 (active)
MED21 (GeneID 9412),3,78.6 (active)
ATM (GeneID 472),1,84.6
ATM (GeneID 472),1,133
ATM (GeneID 472),2,117
ATM (GeneID 472),2,103
ATM (GeneID 472),3,90.4
ATM (GeneID 472),3,122
PCK1 (GeneID 5105),1,101
PCK1 (GeneID 5105),2,80.1
PCK1 (GeneID 5105),3,79.5 (active)
XRCC6 (GeneID 2547),1,74.2 (active)
XRCC6 (GeneID 2547),2,84.9
XRCC6 (GeneID 2547),3,85.4
TERF2IP (GeneID 54386),1,63.1 (active)
TERF2IP (GeneID 54386),2,61.9 (active)
TERF2IP (GeneID 54386),3,61 (active)
BRD4 (GeneID 23476),1,74.2 (active)
BRD4 (GeneID 23476),1,44.1 (active)
BRD4 (GeneID 23476),1,136
BRD4 (GeneID 23476),1,49.6 (active)
BRD4 (GeneID 23476),2,114
BRD4 (GeneID 23476),2,50.2 (active)
BRD4 (GeneID 23476),2,57.4 (active)
BRD4 (GeneID 23476),2,42.6 (active)
BRD4 (GeneID 23476),3,71.9 (active)
BRD4 (GeneID 23476),3,120
BRD4 (GeneID 23476),3,45.7 (active)
BRD4 (GeneID 23476),3,47.7 (active)

Targets listed so far whose target name starts with A or a (6):
gene,technical replicate,"viability, normalised (%)"
ATM (GeneID 472),1,84.6
ATM (GeneID 472),1,133
ATM (GeneID 472),2,117
ATM (GeneID 472),2,103
ATM (GeneID 472),3,90.4
ATM (GeneID 472),3,122
